Laboratory results as given in PMC3927927.
These are yes or no findings as the source states them, for the method shown. Binding seen in cells or lysates may run through a third protein. Some entries that bind do so weakly or less than the wild type. Tags and fused reporters may be left off the sequences shown. Values belong to the binder of their own block, whether it stands above or below them.

Key:
[1] = molecular target: T1, GST–FHL2 (recombinant human four-and-a-half LIM domains protein 2 fused to GST) (human) (UniProt Q14192); test: pull-down; 5 μg GST–FHL1, GST–FHL2 or GST pre-bound to glutathione–Sepharose 4B beads; lysates of ARVMs transduced with AdV:wtPKD1 (vehicle or 100 nM PMA, 10 min); 2 h, 4°C; 50 mM Tris/HCl pH 7.4, 0.05 mM ZnCl2, 2 mM DTT, 1% Triton X-100; immunoblot with total and phospho-specific PKD antibodies; only the target purified
T1 sequence: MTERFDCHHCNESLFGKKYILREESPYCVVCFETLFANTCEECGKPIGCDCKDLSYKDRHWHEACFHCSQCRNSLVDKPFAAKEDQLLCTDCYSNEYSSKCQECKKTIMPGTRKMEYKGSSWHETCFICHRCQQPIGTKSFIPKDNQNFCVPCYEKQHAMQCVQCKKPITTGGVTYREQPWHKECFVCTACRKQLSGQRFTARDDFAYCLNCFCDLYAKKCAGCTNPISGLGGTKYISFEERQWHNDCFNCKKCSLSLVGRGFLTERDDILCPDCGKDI

[2] = molecular target: T2, GST–FHL1 (recombinant mouse four-and-a-half LIM domains protein 1 fused to GST) (mouse) (UniProt P97447); test: as above
T2 sequence: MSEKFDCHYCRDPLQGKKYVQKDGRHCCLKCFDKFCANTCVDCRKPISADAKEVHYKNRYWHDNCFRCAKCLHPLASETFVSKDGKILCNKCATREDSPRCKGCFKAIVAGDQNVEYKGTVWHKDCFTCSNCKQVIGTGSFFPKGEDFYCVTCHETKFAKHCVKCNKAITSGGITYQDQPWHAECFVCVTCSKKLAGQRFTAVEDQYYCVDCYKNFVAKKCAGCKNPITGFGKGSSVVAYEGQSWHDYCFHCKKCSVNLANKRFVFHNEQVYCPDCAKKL

[3] = molecular target: T1, GST–FHL2 (recombinant human four-and-a-half LIM domains protein 2 fused to GST) (human); test: pull-down; 5 μg GST–FHL1, GST–FHL2 or GST pre-bound to glutathione–Sepharose 4B beads; lysates of NRVMs (vehicle or 10 nM ET1, 10 min), endogenous PKD; 2 h, 4°C; 50 mM Tris/HCl pH 7.4, 0.05 mM ZnCl2, 2 mM DTT, 1% Triton X-100; immunoblot with total and phospho-specific PKD antibodies; only the target purified
[4] = molecular target: T2, GST–FHL1 (recombinant mouse four-and-a-half LIM domains protein 1 fused to GST) (mouse); test: as above

binding [1]: binds
binding [2]: binds
B1: mouse PKD1 (protein kinase D1) heterologously expressed in ARVMs (AdV:wtPKD1) (enzyme, UniProt Q62101 1-918)
chain: MSVPPLLRPPSPLLPAAAAVAAAAAALVPGSGPAPFPAPGAAPAGGISFHLQIGLSREPVLLLQDSSGDYSLAHVREMACSIVDQKFPECGFYGLYDKILLFRHDPASDNILQLVKIASDIQEGDLIEVVLSASATFEDFQIRPHALFVHSYRAPAFCDHCGEMLWGLVRQGLKCEGCGLNYHKRCAFKIPNNCSGVRRRRLSNVSLTGLGTVRTASAEFSTSVPDEPLLSPVSPGFEQKSPSESFIGREKRSNSQSYIGRPIQLDKLLMSKVKVPHTFVIHSYTRPTVCQFCKKLLKGLFRQGLQCKDCRFNCHKRCAPKVPNNCLGEVTINGELLSPGAESDVVMEEGSDDNDSERNSGLMDDMDEAMVQDTEMALAEGQSGGAEMQDPDADQEDSNRTISPSTSNNIPLMRVVQSVKHTKRRSSTVMKEGWMVHYTSKDTLRKRHYWRLDSKCITLFQNDTGSRYYKEIPLSEILCLEPAKPSALTPVGATPHCFEITTANVVYYVGENVVNPSSSPPNNSVLPSGIGPDVARMWEVAIQHALMPVIPKGSSVGSGSNSHKDISVSISVSNCQIQENVDISTVYQIFPDEVLGSGQFGIVYGGKHRKTGRDVAIKIIDKLRFPTKQESQLRNEVAILQNLHHPGVVNLECMFETPERVFVVMEKLHGDMLEMILSSEKGRLPEHITKFLITQILVALRHLHFKNIVHCDLKPENVLLASADPFPQVKLCDFGFARIIGEKSFRRSVVGTPAYLAPEVLRNKGYNRSLDMWSVGVIIYVSLSGTFPFNEDEDIHDQIQNAAFMYPPNPWKEISHEAIDLINNLLQVKMRKRYSVDKTLSHPWLQDYQTWLDLRELECRIGERYITHESDDSRWEQYAGEQGLQYPAHLISLSASHSDSPEAEEREMKALSERVSIL
modifications: phosphorylated at Ser744/Ser748 and Ser916 after PMA treatment of the cells

binding [3]: binds
binding [4]: binds
B2: endogenous PKD1 (protein kinase D1) of NRVMs (enzyme, UniProt Q9WTQ1 1-918)
chain: MSAPPLLRPPSPLLPAAAAVAAAAAALVPGSGPAPFPAPGAAPAGGISFHLQIGLSREPVLLLQDSSGDYSLAHVREMACSIVDQKFPECGFYGLYDKILLFRHDPASENILQLVKIASDIQEGDLIEVVLSASATFEDFQIRPHALFVHSYRAPAFCDHCGEMLWGLVRQGLKCEGCGLNYHKRCAFKIPNNCSGVRRRRLSNVSLTGLGTVRTASAEFSTSAPDEPLLSPVSPGFEQKSPSESFIGREKRSNSQSYVGRPIQLDKLLMSKVKVPHTFVIHSYTRPTVCQFCKKLLKGLFRQGLQCKDCRFNCHKRCAPKVPNNCLGEVTINGELLSPGAESDVVMEEGSDDNDSERNSGLMDDMDEAMVQDTEMALAEGQSDGAEMQDPDADQEDSNRTISPSTSNNIPLMRVVQSVKHTKRRSSTVMKEGWMVHYTSKDTLRKRHYWRLDSKSITLFQNDTGSRYYKEIPLSEILCLEPAKPSALIPTGANPHCFEITTANVVYYVGENVVNPSSPPPNNSVPPSGIGTDVARMWEVAIQHALMPVIPKGSSVGSGTNSHKDISVSISVSNSQIQENVDISTVYQIFPDEVLGSGQFGIVYGGKHRKTGRDVAIKIIDKLRFPTKQESQLRNEVAILQNLHHPGVVNLECMFETPERVFVVMEKLHGDMLEMILSSEKGRLPEHITKFLITQILVALRHLHFKNIVHCDLKPENVLLASADPFPQVKLCDFGFARIIGEKSFRRSVVGTPAYLAPEVLRNKGYNRSLDMWSVGVIIYVSLSGTFPFNEDEDIHDQIQNAAFMYPPNPWKEISHEAIDLINNLLQVKMRKRYSVDKTLSHPWLQDYQTWLDLRELECRIGERYITHESDDSRWEQYAGEQGLQYPAHLINLSASHGDSPEAEEREMKALSERVSIL
modifications: phosphorylated at Ser744/Ser748 and Ser916 after ET1 treatment of the cells
